Some of the results follow. These are further read-outs of the screen, such as a control signal, another cell line or another target. No call is given for them. Compounds called inactive in the main read-out are mostly missing here. Potencies come from curve fits of mixed quality, noted in brackets.
Experiment: qHTS Assay for Lipid Storage Modulators in Drosophila S3 Cells;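 on cell number change: cells counted by Cell Tracker Red CMTPX staining in the red channel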
Settings: BODIPY lipid droplet fluorescence, 18-24 h; for cell number change: measured here: cell count max response, cells fed with added oleic acid
Method in brief: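 Drosophila S3 cells loaded with oleic acid (400 uM, as added) and compounds at several concentrations; lipid droplets imaged by 488-nm laser-scanning cytometry, 500–530 nm intensity and object ratio to cell channel. Percent activity normalized to 20 uM Triacsin C.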

[1] = measured here: lipid fluorescence (Fed channel) AC50, cells fed with added oleic acid
[2] = measured here: cell number channel AC50, cells fed with added oleic acid

| Structure (SMILES) | cell number change [%] | AC50 [1] | AC50 [2] |
| --- | --- | --- | --- |
| CCC(C)(C)NC(=O)c1ccc2c(c1)N(CC(=O)OC)C(=O)C(C)(C)O2 | -14.3 | 16.4 µM [falling, single point] | – |
| CCN1CCN(CCNC(=O)c2cc(Cl)c(NC(=O)C3=C(C)OCCS3)cc2OC)CC1 | 19 | 29.1 µM [rising, single point] | – |
| CC(C)Cn1cnc2c(N)nc3ccccc3c21 | -0.326 | 29.1 µM [falling, single point] | – |
| Cn1nnnc1SCC(=O)Nc1ccc(Oc2ccc(Cl)cc2)cc1 | 10.4 | 23.1 µM [rising, single point] | – |
| Cc1ccc(CSCC(=O)Nc2ccccc2F)cc1 | 19.1 | 0.146 µM [falling, full curve] | 0.164 µM [falling, full curve, poor fit] |
| O=C(NCCN=C1NS(=O)(=O)c2ccccc21)c1ccccc1 | 5.86 | 29.1 µM [falling, single point] | – |
| C=C(C)Cn1c(C)cc(C)c(S(=O)(=O)c2cccc(C)c2)c1=O | -46 | 23.1 µM [falling, single point] | 25.9 µM [falling, single point] |
| COc1ccc2oc(=N)c(C(=O)Nc3ccccc3Cl)cc2c1 | -11.1 | – | 6.51 µM [falling, single point] |
| Cc1ccc(C)c(NC(=O)COC(=O)c2cc(=O)c3ccccc3o2)c1 | – | – | 6.51 µM [rising, single point] |
| CC(C)(CCO)NC(=S)NC1CC2C=CC1C2 (stereo not given) | -1.32 | 4.61 µM [falling, single point] | 6.51 µM [falling, single point] |
| CCN(Cc1ccccc1)C(=O)COC(=O)c1c(C)nsc1NC | 1.25 | 0.517 µM [rising, single point] | – |
| CC1(C(=O)NCc2ccccn2)C=CCN1C(=O)c1ccccc1 (stereo not given) | 5.11 | 0.651 µM [rising, partial curve, poor fit] | – |
| Cc1c(C(=O)Nc2ccccn2)oc2c(Cl)cccc12 | 44.2 | 1.46 µM [rising, partial curve] | 4.11 µM [rising, full curve, poor fit] |
| Cc1nn(C)cc1C(C)NC(=O)c1cc(COc2cccc3cnccc23)on1 (stereo not given) | -35.2 | – | 18.4 µM [falling, single point] |
| O=C(Nc1ccccc1C(F)(F)F)N1CCN(c2ccccn2)CC1 | -14 | – | – |
| COc1cccc(NC(=O)C2CCN(S(=O)(=O)c3ccc4c(c3)C(C)(C)C(=O)N4C)CC2)c1 | 9.58 | – | – |
| CC(C)[C@H](NC(=O)OC(C)(C)C)C(=O)N/N=C/c1cccc2nccnc12 | 7.56 | 0.103 µM [falling, full curve, poor fit] | – |
| COC(=O)c1cc(NC(=O)CN(c2ccccc2OC)S(=O)(=O)c2ccccc2)ccc1Cl | -21.4 | 0.517 µM [falling, single point] | – |
| COC(=O)C1=C(C)N2C(=O)CSC2=NC1c1ccc2c(c1)OCO2 (stereo not given) | -14.4 | – | – |
| Cc1c(C(=O)Nc2nc3ccccc3[nH]2)oc2ccc(Br)cc12 | -19.7 | – | – |
| CC1CCN(C(=O)c2[nH]cnc2C(=O)N2CCN(c3ccccc3)CC2)CC1 | 10.3 | 0.082 µM [falling, single point] | 0.0731 µM [falling, single point] |

Structures shown so far that contain fluorine, in the order listed:

| Structure (SMILES) | cell number change [%] | AC50 [1] | AC50 [2] |
| --- | --- | --- | --- |
| Cc1ccc(CSCC(=O)Nc2ccccc2F)cc1 | 19.1 | 0.146 µM [falling, full curve] | 0.164 µM [falling, full curve, poor fit] |
| O=C(Nc1ccccc1C(F)(F)F)N1CCN(c2ccccn2)CC1 | -14 | – | – |

Additional results

| Structure (SMILES) | cell number change [%] | AC50 [1] | AC50 [2] |
| --- | --- | --- | --- |
| Cc1cc(C)n2nc(C(=O)NCc3ccco3)cc2n1 | – | – | 1.84 µM [falling, partial curve, poor fit] |
| O=C(NC1CCC(CC2CCC(NC(=O)C(Cl)Cl)CC2)CC1)C(Cl)Cl (stereo not given) | 24.9 | 6.51 µM [falling, single point] | – |
| CCn1nnnc1SCC(=O)Nc1ccc(N(C)C)cc1 | – | 0.517 µM [rising, partial curve, poor fit] | – |
| COc1cc(OC)cc(C(=O)NC(C)CNc2ccc(Cl)cc2[N+](=O)[O-])c1 (stereo not given) | – | 29.1 µM [falling, single point] | – |
| CCc1ccccc1N1C(=O)c2ccccc2S1(=O)=O | 20.1 | 3.66 µM [rising, partial curve] | – |
| COc1ccccc1N1CCN(CCCNC(=O)C2CCCN(c3ncnc4c3nc3n4CCCCC3)C2)CC1 (stereo not given) | 7.25 | 6.51 µM [rising, single point] | – |
| CCCN1CCN(C(=O)C(C)n2nc(C)c3sc4ccccc4c3c2=O)CC1 (stereo not given) | -8.87 | 29.1 µM [rising, single point] | – |
| Cc1ccc(/C=N/n2c(C)nnc2C)o1 | -10.3 | 4.61 µM [rising, single point] | 5.8 µM [rising, single point] |
| CCOc1ccccc1NC(=O)Nc1ccc2c(c1)CCC2 | -6.94 | 23.1 µM [falling, single point] | – |
| COc1cc([N+](=O)[O-])ccc1NC(=O)C1CCCN(S(C)(=O)=O)C1 (stereo not given) | 12.1 | – | – |
| CNC(=O)Nc1nnc(C(C)(C)C)s1 | 8.79 | 29.1 µM [rising, single point] | – |
| COc1ccc(S(=O)(=O)NC2CCCC2)c(OC)c1 | -20.7 | 6.51 µM [rising, single point] | – |
| COc1ccc(-c2nc(CSCC(=O)NC3CCCc4ccccc43)c(C)o2)cc1OC (stereo not given) | -17 | 0.092 µM [rising, full curve, poor fit] | – |
| CCN(CC(=O)NCc1ccc(F)cc1)C(=O)c1oc2ccccc2c1C | 39.1 | 32.6 µM [rising, partial curve, poor fit] | 32.6 µM [rising, partial curve, poor fit] |
| Cc1cccc(Oc2ncnc3onc(C)c23)c1 | -27.3 | 2.06 µM [falling, partial curve] | – |
| Cc1nn(C)c(C)c1NC(=O)c1ccnn1C | 4.79 | – | – |
| O=C(Nc1cccc([N+](=O)[O-])c1)Nc1cccs1 | 4.41 | – | 0.731 µM [rising, full curve, poor fit] |
| CCSC1=NN2CCS(=O)(=O)N=C2S1 | -16.5 | – | – |
| O=C(CNC(=O)c1ccccc1C(F)(F)F)N/N=C/c1cccs1 | -1.32 | 29.1 µM [rising, single point] | – |
| Cc1nn(-c2ccccc2)nc1C(=O)c1c(C)[nH]n(-c2ccccc2)c1=O | 20 | 1.3 µM [falling, full curve] | – |
| COc1ccc(C(c2nnnn2Cc2cccs2)N2CCN(c3ccccc3F)CC2)cc1 (stereo not given) | 21.7 | 0.461 µM [rising, partial curve] | – |

| Structure (SMILES) | cell number change [%] | AC50 [1] | AC50 [2] |
| --- | --- | --- | --- |
| Cn1c(NN)nc2sc3c(c2c1=O)CCC3 | -51.2 | – | 2.06 µM [falling, partial curve] |
| COc1ccc(-c2noc(C3CCCN(C(=O)c4c(F)cccc4F)C3)n2)cc1OC (stereo not given) | 0.293 | – | – |
| CC(CCn1cccn1)NC(=O)c1cc(COc2ccc(F)cc2Cl)on1 (stereo not given) | -9.93 | 0.411 µM [falling, full curve] | – |
| Cc1cc(C)cc(NS(=O)(=O)c2cnc(Cl)c(Cl)c2)c1 | -83.5 | 29.1 µM [falling, single point] | 29.1 µM [falling, single point] |
| O=C(CCc1ccccc1)Nc1ccncc1 | -3.44 | 16.4 µM [rising, partial curve] | – |
| COc1ccc(CC(=O)OCCN(C)C)cc1 | -68.2 | – | 20.6 µM [falling, single point] |
| CCCc1cc(=O)oc2cc(C)cc(OCC(=O)Nc3cccnc3)c12 | 25.2 | – | – |
| Cc1ccc(C)c(S(=O)(=O)N2CCN(C(=O)C(C)Sc3ccccc3)CC2)c1 (stereo not given) | -0.578 | – | – |
| Brc1ccc(-c2ccccc2)cc1 | -33.4 | – | – |
| CCOC(=O)c1sc(NC(=O)CNC(=O)Cn2cnc3sc(C)c(C)c3c2=O)nc1C | -11.6 | 0.461 µM [falling, full curve] | – |
| Cc1ccc(Cc2c(C)[nH]c(=S)[nH]c2=O)cc1 | 8.05 | – | – |
| CCOc1ccc(C(C)NC(=O)Cc2ccccc2)cc1OCC (stereo not given) | -0.948 | – | 0.58 µM [rising, full curve, poor fit] |
| O=C(COC(=O)/C=C/c1cccc([N+](=O)[O-])c1)NCc1ccc2c(c1)OCO2 | – | – | 0.00411 µM [falling, full curve, poor fit] |
| Cc1cc(Oc2ccccc2)nc(SCC(=O)Nc2ccccc2)n1 | 109 | 11.6 µM [rising, partial curve] | 7.31 µM [rising, partial curve] |
| COC(=O)c1ccccc1N/C=C/C(=O)c1ccc(Br)cc1 | 39 | 1.46 µM [rising, partial curve] | 4.61 µM [rising, partial curve] |
| CC1CCN(S(=O)(=O)c2ccc(NC(=O)Cc3cccs3)cc2)CC1 | 39.4 | – | 8.2 µM [rising, single point] |
| Cn1c(SCC(=O)Nc2cccc3ccccc23)nc(O)cc1=O | -65.8 | – | 32.6 µM [falling, single point] |
| COc1cc(OC)cc(C(=O)NN(CCC#N)C2=NS(=O)(=O)c3ccccc32)c1 | 25.2 | 29.1 µM [rising, single point] | – |
| Cc1ccc(-c2nnc(Nc3ccc4c(c3)OCO4)c3ccccc23)cc1S(=O)(=O)NCCO | -15.7 | 20.6 µM [falling, single point] | – |
| CCOc1ccc(C(=O)NC2CC(=O)N(c3ccc4c(c3)OCCO4)C2)cc1 (stereo not given) | 29.5 | 20.6 µM [rising, single point] | – |
| CS(=O)(=O)c1ccc(C(=O)OCC(=O)NC(=O)Cc2ccccc2)cc1 | -53 | 9.2 µM [falling, partial curve] | 25.9 µM [falling, partial curve, poor fit] |
